US9476050B2, “Combination therapy” (TURUN YLIOPISTO, priority 2011, dated 2016)
At least one structure is not confirmed: it was looked up by name or label, or the drawing left a doubt.

Tested on: T98G glioblastoma cells
Experiment: Apoptosis assay by sub-G0/G1 fraction estimation (apoptotic nuclear fragmentation, PI staining, FACS)
Assay type: cell-based, human
Details: PME-1 siRNA 48 hrs, then drug 24 hrs
Method: The percentage of the sub-G0/G1 fraction containing fragmented nuclei stained with Propidium iodide (P1) was taken as a measure of apoptotic cells. 3.5-4×10^4 cells were plated in 24-well plates, transfected with siRNA for 48 hrs, and then treated with indicated concentration of test compounds in fresh media. After 24 hrs of treatment, both floating and adherent cells were harvested by centrifugation. Cell pellets were resuspended in 400 μl of hypotonic PI buffer, containing 40 mM Tri-sodium citrate (Merck), 0.3% Triton X-100 (Sigma-Aldrich) and 50 μg/ml Propidium iodide (Sigma-Aldrich) in PBS, and incubated at room temperature for 10 minutes in dark. The flow cytometric analysis of PI stained nuclei was performed and the recorded data was analyzed using a FACScan flow cytometer and software (Becton Dickinson) respectively.
In experiments using pan-caspase inhibitor, cells were kept in growth media containing 30 μM Z-VAD-FMK starting from 18 hrs after transfection till the PI staining. […]
The T98G cells transfected with siRNA for 48 hrs were given drug treatments for 24 hrs and were subsequently lysed, and their nuclei were stained using hypotonic propidium iodide buffer. The lysates were analysed for changes in the sub-G0/G1 fraction of fragmented nuclei by flow cytometry (FACS) (FIG. 1B). […]

Row | SMILES | level of apoptosis in PME-1 depleted cells
1 | O=c1cc(N2CCOCC2)oc2c(-c3ccccc3)cccc12 [LY 294002] | moderate levels of apoptosis
2 | CCN(CC)CCNC(=O)c1c(C)[nH]c(/C=C2\C(=O)Nc3ccc(F)cc32)c1C [Sunitinib] | moderate levels of apoptosis
